Laboratory results reported in US20020076760A1.
Results are given in words; binding and its absence hold for the method and conditions named. Some results given as binding are weak or reduced against the parent protein; the word gives no strength.

Target: T1, human G-Protein Coupled Receptor HNFDS78 (human) (UniProt O00421)
T1 sequence: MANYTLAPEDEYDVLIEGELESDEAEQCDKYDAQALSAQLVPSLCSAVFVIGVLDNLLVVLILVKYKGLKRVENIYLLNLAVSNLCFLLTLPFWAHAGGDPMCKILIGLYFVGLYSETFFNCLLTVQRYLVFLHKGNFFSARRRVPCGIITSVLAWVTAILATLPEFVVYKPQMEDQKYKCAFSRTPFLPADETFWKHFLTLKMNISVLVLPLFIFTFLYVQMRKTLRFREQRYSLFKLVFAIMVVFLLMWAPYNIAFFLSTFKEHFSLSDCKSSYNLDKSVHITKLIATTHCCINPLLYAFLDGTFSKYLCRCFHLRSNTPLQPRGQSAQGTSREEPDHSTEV
Experiment: binding of iodinated chemokine to membranes of COS cells transiently expressing the receptor

binding: binds
B1: human chemokine β-8 (ligand)
chain: RVTKDAETEFMMSKLPLENPVLLDRFHATSADCCISYTPRSIPCSLLESYFETNSECSKPGVIFLTKKGRRFCANPSDKQVQVCMRMLKLDTRIKTRKN
modifications: iodinated (radiolabel; residue not stated)
